In the supplement of paper PMC10849652:
The list shows a part of the results.

Protein sequences, listed by entry. Tags and fused reporters are not part of them. Lines headed by an entry give the natural chain unless they say otherwise; changes in a name come on top.
UniProt O94888: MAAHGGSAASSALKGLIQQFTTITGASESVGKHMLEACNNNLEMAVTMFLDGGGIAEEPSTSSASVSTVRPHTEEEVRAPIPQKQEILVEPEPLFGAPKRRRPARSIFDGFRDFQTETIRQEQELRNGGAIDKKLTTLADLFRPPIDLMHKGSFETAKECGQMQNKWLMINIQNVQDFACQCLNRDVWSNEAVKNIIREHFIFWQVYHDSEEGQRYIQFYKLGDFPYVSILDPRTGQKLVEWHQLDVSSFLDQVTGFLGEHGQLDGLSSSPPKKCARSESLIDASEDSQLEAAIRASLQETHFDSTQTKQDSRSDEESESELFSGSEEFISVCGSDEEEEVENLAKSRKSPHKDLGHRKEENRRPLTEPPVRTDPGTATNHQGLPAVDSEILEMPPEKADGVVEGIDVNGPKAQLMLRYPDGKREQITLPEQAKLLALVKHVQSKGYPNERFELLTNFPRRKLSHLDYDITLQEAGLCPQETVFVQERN
UniProt Q8TCY9: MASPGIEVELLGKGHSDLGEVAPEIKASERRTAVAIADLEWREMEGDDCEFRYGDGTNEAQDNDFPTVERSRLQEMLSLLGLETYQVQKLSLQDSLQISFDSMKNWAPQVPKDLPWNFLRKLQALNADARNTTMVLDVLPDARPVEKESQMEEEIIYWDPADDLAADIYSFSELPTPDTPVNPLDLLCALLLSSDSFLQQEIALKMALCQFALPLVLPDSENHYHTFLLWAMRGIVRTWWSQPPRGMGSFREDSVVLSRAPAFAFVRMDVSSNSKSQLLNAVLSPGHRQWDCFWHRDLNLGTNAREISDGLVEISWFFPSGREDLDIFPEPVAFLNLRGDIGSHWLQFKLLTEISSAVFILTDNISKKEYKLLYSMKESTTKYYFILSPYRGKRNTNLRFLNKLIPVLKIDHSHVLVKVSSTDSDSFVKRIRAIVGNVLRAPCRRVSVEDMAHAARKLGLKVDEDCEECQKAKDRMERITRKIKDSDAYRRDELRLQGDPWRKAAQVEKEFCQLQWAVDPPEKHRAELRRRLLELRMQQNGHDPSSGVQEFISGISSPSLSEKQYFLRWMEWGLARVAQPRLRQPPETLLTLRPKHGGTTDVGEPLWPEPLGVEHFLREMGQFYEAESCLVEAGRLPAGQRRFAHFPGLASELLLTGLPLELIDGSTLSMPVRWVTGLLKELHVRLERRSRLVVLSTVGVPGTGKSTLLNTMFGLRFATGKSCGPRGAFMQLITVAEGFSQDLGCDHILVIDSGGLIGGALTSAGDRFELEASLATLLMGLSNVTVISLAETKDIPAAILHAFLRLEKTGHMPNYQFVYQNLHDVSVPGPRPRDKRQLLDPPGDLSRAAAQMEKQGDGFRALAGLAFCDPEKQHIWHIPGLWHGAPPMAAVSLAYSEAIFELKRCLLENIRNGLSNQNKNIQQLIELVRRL
UniProt Q9HA47: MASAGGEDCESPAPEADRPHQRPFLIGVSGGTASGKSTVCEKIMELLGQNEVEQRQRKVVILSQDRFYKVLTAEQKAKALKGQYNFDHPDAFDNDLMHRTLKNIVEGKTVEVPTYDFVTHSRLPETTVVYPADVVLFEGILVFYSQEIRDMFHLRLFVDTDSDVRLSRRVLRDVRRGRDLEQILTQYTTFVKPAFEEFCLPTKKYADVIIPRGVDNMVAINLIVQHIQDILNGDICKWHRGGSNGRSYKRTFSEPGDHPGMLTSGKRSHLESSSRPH
UniProt P31930: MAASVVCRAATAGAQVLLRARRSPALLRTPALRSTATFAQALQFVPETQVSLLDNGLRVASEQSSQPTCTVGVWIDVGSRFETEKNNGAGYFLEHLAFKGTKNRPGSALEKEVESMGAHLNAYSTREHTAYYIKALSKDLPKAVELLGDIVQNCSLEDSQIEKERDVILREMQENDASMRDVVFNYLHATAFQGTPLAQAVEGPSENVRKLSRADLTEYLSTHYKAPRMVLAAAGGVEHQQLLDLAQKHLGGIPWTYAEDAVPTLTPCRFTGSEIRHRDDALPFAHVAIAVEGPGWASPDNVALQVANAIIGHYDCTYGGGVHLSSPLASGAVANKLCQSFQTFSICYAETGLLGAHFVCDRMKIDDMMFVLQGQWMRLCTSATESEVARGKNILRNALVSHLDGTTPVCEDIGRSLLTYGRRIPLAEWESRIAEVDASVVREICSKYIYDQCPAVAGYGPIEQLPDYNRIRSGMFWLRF
UniProt Q9NRR5, whole entry, looked up: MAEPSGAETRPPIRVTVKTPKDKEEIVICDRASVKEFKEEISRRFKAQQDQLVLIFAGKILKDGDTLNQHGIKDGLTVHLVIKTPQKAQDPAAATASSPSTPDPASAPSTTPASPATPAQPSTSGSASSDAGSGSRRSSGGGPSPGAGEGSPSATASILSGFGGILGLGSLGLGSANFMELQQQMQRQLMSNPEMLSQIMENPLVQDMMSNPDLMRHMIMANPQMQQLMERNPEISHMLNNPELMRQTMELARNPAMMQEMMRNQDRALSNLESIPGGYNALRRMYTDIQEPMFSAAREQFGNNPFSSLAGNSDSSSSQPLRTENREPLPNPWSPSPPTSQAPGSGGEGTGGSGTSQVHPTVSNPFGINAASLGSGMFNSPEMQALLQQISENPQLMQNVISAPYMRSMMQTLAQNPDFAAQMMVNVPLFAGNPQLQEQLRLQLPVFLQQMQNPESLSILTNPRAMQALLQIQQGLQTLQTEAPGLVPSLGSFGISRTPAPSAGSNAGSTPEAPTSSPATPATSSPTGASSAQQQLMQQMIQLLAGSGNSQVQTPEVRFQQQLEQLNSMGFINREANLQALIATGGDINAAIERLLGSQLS
UniProt O75379: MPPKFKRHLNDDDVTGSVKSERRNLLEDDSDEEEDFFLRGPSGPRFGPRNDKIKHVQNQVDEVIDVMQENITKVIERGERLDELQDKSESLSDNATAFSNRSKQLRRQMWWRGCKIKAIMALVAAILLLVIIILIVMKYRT
UniProt O95292, whole entry, looked up: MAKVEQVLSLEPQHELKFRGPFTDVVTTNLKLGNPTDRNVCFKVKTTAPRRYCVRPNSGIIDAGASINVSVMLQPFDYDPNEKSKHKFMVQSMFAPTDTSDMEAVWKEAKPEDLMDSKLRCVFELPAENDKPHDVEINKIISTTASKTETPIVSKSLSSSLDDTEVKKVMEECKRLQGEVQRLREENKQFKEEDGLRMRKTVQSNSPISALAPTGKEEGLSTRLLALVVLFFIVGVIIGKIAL
UniProt P14927: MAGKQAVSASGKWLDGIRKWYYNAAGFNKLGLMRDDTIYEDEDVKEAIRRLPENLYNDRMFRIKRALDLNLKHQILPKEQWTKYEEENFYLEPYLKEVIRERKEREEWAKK
UniProt P18206: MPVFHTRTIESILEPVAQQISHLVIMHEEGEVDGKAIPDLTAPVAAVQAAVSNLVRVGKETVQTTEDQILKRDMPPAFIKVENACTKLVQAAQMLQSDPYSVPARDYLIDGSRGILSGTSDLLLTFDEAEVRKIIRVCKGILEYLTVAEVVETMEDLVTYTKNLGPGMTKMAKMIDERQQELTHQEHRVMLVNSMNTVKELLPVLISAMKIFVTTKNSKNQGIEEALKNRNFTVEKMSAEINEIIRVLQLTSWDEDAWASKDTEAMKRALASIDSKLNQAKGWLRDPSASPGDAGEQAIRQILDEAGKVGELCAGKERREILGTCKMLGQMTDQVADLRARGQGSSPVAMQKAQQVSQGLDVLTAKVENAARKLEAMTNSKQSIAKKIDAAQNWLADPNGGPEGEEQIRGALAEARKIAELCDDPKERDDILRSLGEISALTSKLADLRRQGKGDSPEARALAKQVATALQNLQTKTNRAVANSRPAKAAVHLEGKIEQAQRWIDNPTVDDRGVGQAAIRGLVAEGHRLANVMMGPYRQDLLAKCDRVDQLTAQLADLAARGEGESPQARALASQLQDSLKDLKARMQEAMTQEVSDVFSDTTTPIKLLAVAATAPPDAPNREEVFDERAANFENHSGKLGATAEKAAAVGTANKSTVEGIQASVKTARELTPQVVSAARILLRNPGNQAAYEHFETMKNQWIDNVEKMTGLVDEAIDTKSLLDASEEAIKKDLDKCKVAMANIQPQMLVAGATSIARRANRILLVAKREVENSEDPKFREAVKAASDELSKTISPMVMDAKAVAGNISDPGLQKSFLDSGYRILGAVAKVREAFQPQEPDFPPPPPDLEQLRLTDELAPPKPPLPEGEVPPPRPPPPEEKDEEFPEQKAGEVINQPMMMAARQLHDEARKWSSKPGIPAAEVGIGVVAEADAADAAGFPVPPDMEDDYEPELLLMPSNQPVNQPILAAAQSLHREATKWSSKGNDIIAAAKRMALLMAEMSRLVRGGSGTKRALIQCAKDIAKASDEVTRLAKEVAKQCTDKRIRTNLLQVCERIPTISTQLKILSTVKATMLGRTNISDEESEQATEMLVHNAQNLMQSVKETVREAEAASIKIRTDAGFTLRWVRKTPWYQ
UniProt Q96RL1: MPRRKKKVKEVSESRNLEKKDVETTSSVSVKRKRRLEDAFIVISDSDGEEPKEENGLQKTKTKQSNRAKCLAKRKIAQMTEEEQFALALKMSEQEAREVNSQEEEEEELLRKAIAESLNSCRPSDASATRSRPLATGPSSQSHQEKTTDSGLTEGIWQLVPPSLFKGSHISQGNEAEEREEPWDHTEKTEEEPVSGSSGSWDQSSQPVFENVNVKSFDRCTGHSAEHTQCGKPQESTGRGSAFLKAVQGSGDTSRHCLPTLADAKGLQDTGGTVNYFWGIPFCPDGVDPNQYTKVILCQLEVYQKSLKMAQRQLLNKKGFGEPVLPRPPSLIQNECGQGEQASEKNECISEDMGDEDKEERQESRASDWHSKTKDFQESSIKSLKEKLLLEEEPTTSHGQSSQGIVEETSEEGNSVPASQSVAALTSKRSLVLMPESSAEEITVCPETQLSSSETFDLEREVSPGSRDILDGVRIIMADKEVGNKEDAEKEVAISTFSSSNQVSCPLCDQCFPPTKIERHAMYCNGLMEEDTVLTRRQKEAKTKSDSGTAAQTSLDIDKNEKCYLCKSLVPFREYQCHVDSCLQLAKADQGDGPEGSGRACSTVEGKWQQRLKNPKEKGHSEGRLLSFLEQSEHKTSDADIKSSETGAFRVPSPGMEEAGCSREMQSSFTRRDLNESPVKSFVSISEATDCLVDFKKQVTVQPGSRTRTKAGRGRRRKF
UniProt P45974: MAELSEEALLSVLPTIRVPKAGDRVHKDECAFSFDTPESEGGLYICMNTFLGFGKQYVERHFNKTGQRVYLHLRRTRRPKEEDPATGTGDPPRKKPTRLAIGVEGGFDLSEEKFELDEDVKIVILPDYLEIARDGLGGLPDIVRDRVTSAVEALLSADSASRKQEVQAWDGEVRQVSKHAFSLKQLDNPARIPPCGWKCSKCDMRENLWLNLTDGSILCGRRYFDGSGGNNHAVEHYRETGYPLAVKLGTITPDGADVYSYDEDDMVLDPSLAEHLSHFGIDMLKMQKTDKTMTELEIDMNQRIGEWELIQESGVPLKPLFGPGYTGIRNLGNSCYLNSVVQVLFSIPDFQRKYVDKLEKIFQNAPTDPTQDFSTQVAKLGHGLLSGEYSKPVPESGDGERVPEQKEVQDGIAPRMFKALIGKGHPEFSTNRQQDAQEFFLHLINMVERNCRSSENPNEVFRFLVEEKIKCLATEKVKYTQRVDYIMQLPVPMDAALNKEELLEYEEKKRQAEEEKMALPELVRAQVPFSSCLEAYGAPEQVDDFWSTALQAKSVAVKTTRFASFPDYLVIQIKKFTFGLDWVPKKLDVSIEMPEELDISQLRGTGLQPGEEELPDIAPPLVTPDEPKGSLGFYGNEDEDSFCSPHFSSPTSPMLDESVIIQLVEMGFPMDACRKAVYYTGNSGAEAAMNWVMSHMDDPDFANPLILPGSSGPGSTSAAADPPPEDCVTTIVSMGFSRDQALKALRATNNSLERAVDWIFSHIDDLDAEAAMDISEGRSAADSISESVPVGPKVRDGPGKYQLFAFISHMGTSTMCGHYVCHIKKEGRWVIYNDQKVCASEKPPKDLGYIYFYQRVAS
UniProt P47985: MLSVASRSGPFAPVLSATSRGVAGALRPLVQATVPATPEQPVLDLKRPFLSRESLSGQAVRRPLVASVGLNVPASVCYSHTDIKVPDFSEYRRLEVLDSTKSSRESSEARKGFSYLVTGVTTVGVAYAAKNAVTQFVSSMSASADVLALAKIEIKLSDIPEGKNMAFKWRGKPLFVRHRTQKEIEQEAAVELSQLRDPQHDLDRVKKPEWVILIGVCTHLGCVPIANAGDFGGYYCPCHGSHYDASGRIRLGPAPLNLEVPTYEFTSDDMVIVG
UniProt Q9NVA1: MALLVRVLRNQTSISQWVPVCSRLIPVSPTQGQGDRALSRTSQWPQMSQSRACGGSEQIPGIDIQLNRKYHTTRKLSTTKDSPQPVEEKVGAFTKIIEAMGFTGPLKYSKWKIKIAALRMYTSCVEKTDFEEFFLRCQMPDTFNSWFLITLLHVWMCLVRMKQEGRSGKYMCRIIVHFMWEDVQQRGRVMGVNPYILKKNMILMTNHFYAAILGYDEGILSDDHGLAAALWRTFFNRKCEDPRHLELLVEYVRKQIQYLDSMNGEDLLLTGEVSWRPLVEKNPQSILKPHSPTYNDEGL

Compound: Cc1cc(Nc2cc(CN3CCOCC3)c3nc(C)c(Cc4ccc(Cl)cc4F)n3n2)n[nH]1 [gandotinib]
Test: log2 fold change, soluble protein after heating vs DMSO (PISA); higher = thermal stabilisation; K562 cells, 10 uM, 30 min; active = over 0.2 and 3.5 SD of the protein, either way, in both replicates (recomputed)
How it was run: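 K562 cells at 2×10^6 cells/mL were exposed to 10 μM compound for 30 min, then aliquots were heated for 3 min across 48°C-58°C, pooled, and extracted in PBS containing 0.5% NP-40 at 4°C. The supernatant after 21,000xg for 90 min was taken as soluble protein and measured by TMTpro 16plex LC-MS/MS with channel sums equalised. Thermal stability is reported relative to control samples, with values from duplicates. Fold changes are given on a log2 scale.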

log2 fold change, inactive:
UBXN7 (UniProt O94888) -0.06
URGCP (UniProt Q8TCY9) -0.108
UBXN4 (UniProt Q92575) -0.053
VANGL1 (UniProt Q8TAA9) -0.011
UCK1 (UniProt Q9HA47) -0.051
UGP2 (UniProt Q16851) -0.014
UQCRC1 (UniProt P31930) 0.024
VAPA isoform 2 (UniProt Q9P0L0) -0.03
UBQLN4 (UniProt Q9NRR5) 0.024
VAMP4 (UniProt O75379) 0.044
VAPB (UniProt O95292) -0.021
UVRAG (UniProt Q9P2Y5) 0.181
UQCRB (UniProt P14927) -0.02
VCL (UniProt P18206) -0.019
UIMC1 (UniProt Q96RL1) 0.146
UBR5 (UniProt O95071) 0
USP5 (UniProt P45974) -0.021
UQCRFS1 (UniProt P47985) -0.035
UMPS (UniProt P11172) 0.03
UQCRC2 (UniProt P22695) -0.014
UBQLN2 (UniProt Q9UHD9) 0.012
UQCC1 (UniProt Q9NVA1) 0.014
VAT1 (UniProt Q99536) -0.009
UBL5 (UniProt Q9BZL1) -0.262

Looked up one by one from the entries so far (two):
log2 fold change, inactive:
UGP2 (UniProt Q16851) -0.014
VCL (UniProt P18206) -0.019
